Laboratory results as given in the supplement of paper PMC10849652.
The list shows a part of the results.

Protein sequences, listed by entry. Tags and fused reporters are not part of them. Lines headed by an entry give the natural chain unless they say otherwise; changes in a name come on top.
UniProt O15243: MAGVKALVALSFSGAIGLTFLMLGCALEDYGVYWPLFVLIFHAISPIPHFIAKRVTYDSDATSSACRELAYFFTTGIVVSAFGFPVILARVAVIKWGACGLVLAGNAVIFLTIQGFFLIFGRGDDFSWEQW
UniProt P62310: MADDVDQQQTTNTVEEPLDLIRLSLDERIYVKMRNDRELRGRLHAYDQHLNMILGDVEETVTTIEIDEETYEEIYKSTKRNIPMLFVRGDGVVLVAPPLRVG
UniProt Q96FE5: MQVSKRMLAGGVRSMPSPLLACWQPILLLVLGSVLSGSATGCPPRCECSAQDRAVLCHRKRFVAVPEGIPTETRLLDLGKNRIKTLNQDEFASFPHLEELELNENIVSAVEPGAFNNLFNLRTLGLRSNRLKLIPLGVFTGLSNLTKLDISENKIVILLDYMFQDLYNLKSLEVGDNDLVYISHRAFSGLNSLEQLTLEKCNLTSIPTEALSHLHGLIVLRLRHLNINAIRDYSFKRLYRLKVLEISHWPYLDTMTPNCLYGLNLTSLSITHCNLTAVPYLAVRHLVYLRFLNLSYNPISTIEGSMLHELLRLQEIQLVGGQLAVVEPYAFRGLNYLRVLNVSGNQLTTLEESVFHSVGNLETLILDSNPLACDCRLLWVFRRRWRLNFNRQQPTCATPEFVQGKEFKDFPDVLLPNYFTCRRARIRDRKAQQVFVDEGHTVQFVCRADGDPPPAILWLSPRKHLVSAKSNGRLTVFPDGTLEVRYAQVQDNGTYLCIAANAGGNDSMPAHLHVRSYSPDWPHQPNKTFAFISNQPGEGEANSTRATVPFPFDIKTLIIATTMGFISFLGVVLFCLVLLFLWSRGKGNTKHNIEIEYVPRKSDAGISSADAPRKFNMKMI
UniProt Q5T3J3: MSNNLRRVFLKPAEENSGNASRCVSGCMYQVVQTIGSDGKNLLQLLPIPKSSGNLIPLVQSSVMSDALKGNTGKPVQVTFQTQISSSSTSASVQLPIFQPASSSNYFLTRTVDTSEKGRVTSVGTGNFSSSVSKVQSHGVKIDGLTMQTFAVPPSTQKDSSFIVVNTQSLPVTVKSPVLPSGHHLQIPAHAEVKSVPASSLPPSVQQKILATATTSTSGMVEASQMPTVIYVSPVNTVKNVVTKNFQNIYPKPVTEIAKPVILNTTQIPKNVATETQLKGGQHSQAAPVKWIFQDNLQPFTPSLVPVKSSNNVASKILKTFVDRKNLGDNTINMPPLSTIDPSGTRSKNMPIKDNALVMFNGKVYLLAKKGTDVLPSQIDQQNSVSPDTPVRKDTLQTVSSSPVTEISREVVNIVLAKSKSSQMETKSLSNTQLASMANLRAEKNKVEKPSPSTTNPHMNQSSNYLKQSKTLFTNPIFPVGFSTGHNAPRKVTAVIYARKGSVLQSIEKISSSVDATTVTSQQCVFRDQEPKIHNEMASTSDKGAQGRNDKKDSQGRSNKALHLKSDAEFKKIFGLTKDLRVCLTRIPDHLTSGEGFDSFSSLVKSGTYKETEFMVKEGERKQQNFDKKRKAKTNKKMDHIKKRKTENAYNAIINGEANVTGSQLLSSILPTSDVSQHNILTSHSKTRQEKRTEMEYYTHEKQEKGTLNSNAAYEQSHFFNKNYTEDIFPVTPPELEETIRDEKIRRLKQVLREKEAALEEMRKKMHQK
UniProt Q6P1A2: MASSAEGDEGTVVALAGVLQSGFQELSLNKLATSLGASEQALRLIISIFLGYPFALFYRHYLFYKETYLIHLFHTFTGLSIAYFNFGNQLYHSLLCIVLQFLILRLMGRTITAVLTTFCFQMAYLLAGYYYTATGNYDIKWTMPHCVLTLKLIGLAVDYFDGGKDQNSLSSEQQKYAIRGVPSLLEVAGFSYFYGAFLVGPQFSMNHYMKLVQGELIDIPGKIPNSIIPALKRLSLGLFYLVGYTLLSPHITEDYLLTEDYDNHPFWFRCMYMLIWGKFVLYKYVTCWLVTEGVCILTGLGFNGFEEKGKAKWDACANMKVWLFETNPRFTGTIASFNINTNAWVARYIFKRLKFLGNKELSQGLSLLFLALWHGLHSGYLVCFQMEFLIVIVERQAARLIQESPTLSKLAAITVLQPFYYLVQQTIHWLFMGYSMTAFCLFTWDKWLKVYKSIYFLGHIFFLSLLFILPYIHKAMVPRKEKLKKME
UniProt Q8NC56: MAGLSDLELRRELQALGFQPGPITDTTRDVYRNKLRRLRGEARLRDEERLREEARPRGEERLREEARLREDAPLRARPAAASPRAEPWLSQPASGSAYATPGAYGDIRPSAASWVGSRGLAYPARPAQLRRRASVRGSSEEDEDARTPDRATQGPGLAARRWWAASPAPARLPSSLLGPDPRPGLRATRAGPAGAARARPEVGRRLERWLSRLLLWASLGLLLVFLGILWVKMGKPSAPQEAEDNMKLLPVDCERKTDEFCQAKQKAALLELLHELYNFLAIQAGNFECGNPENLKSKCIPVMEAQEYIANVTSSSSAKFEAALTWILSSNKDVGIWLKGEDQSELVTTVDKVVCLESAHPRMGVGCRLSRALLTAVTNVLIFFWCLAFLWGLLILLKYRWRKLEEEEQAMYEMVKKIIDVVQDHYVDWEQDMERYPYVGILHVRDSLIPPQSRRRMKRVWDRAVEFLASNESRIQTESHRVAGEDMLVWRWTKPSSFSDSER
UniProt Q9Y2U8: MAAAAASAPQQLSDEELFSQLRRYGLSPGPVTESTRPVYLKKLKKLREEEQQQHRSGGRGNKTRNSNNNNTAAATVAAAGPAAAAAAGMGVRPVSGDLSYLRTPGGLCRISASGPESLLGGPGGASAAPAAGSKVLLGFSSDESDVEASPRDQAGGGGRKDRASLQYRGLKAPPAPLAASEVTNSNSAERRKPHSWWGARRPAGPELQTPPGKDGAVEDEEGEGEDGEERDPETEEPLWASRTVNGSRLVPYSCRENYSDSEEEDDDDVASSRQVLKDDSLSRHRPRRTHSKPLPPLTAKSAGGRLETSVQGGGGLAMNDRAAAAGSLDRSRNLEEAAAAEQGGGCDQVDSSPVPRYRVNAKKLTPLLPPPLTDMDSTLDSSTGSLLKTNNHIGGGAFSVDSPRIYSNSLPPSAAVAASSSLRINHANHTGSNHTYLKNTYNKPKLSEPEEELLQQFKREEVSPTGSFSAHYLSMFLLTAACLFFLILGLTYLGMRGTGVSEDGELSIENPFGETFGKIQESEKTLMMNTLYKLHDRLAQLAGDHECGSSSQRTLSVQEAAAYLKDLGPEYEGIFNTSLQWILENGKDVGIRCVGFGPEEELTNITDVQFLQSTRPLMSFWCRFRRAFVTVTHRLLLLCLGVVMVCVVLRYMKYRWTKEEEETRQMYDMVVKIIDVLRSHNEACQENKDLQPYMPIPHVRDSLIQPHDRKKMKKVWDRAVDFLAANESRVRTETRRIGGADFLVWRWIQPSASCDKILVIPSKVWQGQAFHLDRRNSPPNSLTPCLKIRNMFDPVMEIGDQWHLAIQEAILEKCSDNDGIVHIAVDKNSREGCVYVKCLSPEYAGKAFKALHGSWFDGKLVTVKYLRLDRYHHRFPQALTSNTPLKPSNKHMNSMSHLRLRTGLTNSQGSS
UniProt Q9UK45: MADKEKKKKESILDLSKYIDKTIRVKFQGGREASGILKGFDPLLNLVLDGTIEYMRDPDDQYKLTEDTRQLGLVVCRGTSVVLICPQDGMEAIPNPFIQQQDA
UniProt Q15031: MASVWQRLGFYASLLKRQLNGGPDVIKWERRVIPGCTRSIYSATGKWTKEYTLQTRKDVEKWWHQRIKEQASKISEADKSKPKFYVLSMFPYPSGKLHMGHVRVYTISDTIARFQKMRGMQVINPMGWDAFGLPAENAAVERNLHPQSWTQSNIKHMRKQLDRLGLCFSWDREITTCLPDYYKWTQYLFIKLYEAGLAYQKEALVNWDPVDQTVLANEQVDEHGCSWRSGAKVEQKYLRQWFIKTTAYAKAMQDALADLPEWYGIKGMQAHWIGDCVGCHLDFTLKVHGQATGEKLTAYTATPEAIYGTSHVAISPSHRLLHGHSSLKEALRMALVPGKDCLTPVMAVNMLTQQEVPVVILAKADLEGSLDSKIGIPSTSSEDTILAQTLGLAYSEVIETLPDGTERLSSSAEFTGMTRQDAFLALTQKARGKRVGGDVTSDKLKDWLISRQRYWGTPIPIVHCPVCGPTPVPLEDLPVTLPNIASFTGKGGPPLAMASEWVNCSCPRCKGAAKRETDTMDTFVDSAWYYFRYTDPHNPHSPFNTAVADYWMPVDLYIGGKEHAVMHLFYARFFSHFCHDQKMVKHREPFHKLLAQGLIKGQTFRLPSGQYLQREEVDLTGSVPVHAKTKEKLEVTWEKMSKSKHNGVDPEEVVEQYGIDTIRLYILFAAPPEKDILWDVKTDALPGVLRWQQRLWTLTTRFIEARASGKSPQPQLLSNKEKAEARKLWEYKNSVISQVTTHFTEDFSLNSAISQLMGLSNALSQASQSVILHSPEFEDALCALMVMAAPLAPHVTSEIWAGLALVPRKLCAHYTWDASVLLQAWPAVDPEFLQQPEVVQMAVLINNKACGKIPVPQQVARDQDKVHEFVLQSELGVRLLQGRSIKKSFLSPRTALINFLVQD
UniProt Q12907: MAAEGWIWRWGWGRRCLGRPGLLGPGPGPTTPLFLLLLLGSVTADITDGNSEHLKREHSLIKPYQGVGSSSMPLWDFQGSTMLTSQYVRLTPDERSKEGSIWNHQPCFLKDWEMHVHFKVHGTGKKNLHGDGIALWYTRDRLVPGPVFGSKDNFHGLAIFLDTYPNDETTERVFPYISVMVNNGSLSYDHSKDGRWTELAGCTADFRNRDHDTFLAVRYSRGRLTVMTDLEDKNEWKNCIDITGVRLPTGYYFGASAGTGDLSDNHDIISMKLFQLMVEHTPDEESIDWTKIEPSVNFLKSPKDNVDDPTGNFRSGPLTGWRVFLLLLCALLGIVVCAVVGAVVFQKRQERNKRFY
UniProt Q53QV2: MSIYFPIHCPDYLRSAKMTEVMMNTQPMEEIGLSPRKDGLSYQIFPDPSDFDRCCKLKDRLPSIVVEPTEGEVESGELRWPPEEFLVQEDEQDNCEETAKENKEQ
UniProt Q1L5Z9: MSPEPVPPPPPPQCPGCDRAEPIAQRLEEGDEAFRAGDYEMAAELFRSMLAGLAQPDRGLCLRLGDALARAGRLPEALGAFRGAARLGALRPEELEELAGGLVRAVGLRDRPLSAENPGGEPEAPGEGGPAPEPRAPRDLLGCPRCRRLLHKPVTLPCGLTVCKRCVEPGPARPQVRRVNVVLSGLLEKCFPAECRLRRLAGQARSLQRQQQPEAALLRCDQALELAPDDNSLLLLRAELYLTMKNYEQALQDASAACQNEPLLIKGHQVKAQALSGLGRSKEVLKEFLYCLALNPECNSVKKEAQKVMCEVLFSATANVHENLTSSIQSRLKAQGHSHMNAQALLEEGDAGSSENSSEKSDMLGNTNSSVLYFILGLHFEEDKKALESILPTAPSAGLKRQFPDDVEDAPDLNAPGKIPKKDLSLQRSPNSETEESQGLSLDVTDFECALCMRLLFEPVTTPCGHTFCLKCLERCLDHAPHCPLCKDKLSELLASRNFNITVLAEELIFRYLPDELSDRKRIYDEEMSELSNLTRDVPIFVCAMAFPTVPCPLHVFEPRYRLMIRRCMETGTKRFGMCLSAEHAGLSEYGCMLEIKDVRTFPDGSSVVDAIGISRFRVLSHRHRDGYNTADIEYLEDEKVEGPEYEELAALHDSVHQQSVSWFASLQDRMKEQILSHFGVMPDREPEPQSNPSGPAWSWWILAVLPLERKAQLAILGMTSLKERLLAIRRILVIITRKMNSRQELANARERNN
UniProt Q9Y4Y9: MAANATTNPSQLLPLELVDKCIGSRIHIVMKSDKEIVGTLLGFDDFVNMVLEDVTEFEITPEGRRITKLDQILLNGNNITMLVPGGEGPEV
UniProt Q15048: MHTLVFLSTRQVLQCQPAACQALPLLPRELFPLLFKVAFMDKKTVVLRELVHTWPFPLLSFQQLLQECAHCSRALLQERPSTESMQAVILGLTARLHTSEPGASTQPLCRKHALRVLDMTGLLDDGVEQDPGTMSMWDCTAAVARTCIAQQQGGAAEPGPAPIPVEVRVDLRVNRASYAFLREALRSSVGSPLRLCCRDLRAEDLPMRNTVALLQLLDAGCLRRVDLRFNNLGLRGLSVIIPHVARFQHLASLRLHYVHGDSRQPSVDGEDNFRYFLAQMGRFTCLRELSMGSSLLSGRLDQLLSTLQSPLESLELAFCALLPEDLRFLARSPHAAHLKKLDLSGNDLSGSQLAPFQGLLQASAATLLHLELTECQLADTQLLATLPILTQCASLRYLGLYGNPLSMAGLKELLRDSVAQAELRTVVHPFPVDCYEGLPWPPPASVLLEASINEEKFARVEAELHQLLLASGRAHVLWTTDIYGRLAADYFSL

What was measured:
Test in all cases: log2 fold change, soluble protein after heating vs DMSO (PISA); higher = thermal stabilisation; K562 lysate, 10 uM; active = over 0.2 and 3.5 SD of the protein, either way, in both replicates (recomputed)
alvocidib = compound: CN1CC[C@H](c2c(O)cc(O)c3c(=O)cc(-c4ccccc4Cl)oc23)[C@H](O)C1 [alvocidib]
Summary of the method: (§1)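 Values give the log-two fold change in thermal stability against solvent controls, from duplicates. Crude K562 extract at 1 mg/mL protein, made by dounce homogenisation in PBS pH 7.4 with 1 mM MgCl2, was treated with 10 μM compound for 30 min. After 3 min heating across 48°C-58°C, aliquots were pooled, adjusted to 0.5% NP-40 at 4°C and centrifuged at 21,000xg for 90 min. The supernatant was measured by TMTpro 16plex LC-MS/MS with channel sums equalised.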

Tubastatin A = compound: CN1CCc2c(c3ccccc3n2Cc2ccc(C(=O)NO)cc2)C1 [Tubastatin A]
Summary of the method: as §1

[1] = compound: CNC(=O)C1=CC=CC=C1NC2=NC(=NC=C2Cl)NC3=C(C=C(C=C3)N4CCOCC4)OC
Summary of the method: as §1

defactinib = compound: CNC(=O)c1ccc(Nc2ncc(C(F)(F)F)c(NCc3nccnc3N(C)S(C)(=O)=O)n2)cc1 [defactinib]
Summary of the method: as §1

[2] = compound: CNc1nc(-c2ccc3c(N)n[nH]c3c2)cc(N2C[C@@H](C(=O)NC3CCCCC3)CC[C@H]2C)n1
Summary of the method: as §1

encorafenib = compound: COC(=O)N[C@@H](C)CNc1nccc(-c2cn(C(C)C)nc2-c2cc(Cl)cc(NS(C)(=O)=O)c2F)n1 [encorafenib]
Summary of the method: as §1

[3] = compound: COC(=O)[C@H](CCSC)NC(=O)C1=C(C=C(C=C1)NC[C@H](CS)N)C2=CC=CC=C2
Summary of the method: as §1

alisertib = compound: COc1cc(Nc2ncc3c(n2)-c2ccc(Cl)cc2C(c2c(F)cccc2OC)=NC3)ccc1C(=O)O [alisertib]
Summary of the method: as §1

[4] = compound: COc1cc2nc(-c3cc(F)ccc3O)nc(N[C@@H]3CNC[C@H]3C(C)(C)O)c2cc1OC
Summary of the method: as §1

gefitinib = compound: COc1cc2ncnc(Nc3ccc(F)c(Cl)c3)c2cc1OCCCN1CCOCC1 [gefitinib]
Summary of the method: as §1

lapatinib = compound: CS(=O)(=O)CCNCc1ccc(-c2ccc3ncnc(Nc4ccc(OCc5cccc(F)c5)c(Cl)c4)c3c2)o1 [lapatinib]
Summary of the method: as §1

pictilisib = compound: CS(=O)(=O)N1CCN(Cc2cc3nc(-c4cccc5[nH]ncc45)nc(N4CCOCC4)c3s2)CC1 [pictilisib]
Summary of the method: as §1

crizotinib = compound: C[C@@H](Oc1cc(-c2cnn(C3CCNCC3)c2)cnc1N)c1c(Cl)ccc(F)c1Cl [crizotinib]
Summary of the method: as §1

[5] = compound: C[C@H](C1=CC=C(C=C1)C(=O)NC2=C3C=CNC3=NC=C2)N
Summary of the method: as §1

duvelisib = compound: C[C@H](Nc1ncnc2nc[nH]c12)c1cc2cccc(Cl)c2c(=O)n1-c1ccccc1 [duvelisib]
Summary of the method: as §1

gandotinib = compound: Cc1cc(Nc2cc(CN3CCOCC3)c3nc(C)c(Cc4ccc(Cl)cc4F)n3n2)n[nH]1 [gandotinib]
Summary of the method: as §1

tozasertib = compound: Cc1cc(Nc2cc(N3CCN(C)CC3)nc(Sc3ccc(NC(=O)C4CC4)cc3)n2)n[nH]1 [tozasertib]
Summary of the method: as §1

doramapimod = compound: Cc1ccc(-n2nc(C(C)(C)C)cc2NC(=O)Nc2ccc(OCCN3CCOCC3)c3ccccc23)cc1 [doramapimod]
Summary of the method: as §1

bafetinib = compound: Cc1ccc(NC(=O)c2ccc(CN3CC[C@H](N(C)C)C3)c(C(F)(F)F)c2)cc1Nc1nccc(-c2cncnc2)n1 [bafetinib]
Summary of the method: as §1

[6] = compound: Cc1cccc(CC(=O)N2CCc3c2ccc(-c2cn(C)c4ncnc(N)c24)c3F)n1
Summary of the method: as §1

Row | Target | log2 fold change (alvocidib) | log2 fold change (Tubastatin A) | log2 fold change [1] | log2 fold change (defactinib) | log2 fold change [2] | log2 fold change (encorafenib) | log2 fold change [3] | log2 fold change (alisertib) | log2 fold change [4] | log2 fold change (gefitinib) | log2 fold change (lapatinib) | log2 fold change (pictilisib) | log2 fold change (crizotinib) | log2 fold change [5] | log2 fold change (duvelisib) | log2 fold change (gandotinib) | log2 fold change (tozasertib) | log2 fold change (doramapimod) | log2 fold change (bafetinib) | log2 fold change [6]
1 | LMBRD2 (UniProt Q68DH5) | inactive: 0.059 | inactive: 0.054 | inactive: -0.002 | inactive: 0.01 | inactive: -0.011 | inactive: 0.051 | inactive: 0.027 | inactive: 0.123 | inactive: 0.003 | inactive: 0.153 | inactive: -0.037 | inactive: -0.012 | inactive: -0.056 | inactive: 0.035 | inactive: 0.018 | inactive: 0.025 | inactive: 0.016 | inactive: 0.019 | inactive: 0.002 | inactive: -0.009
2 | LEPROT (UniProt O15243) | inactive: 0.006 | inactive: 0.01 | inactive: 0 |  |  | inactive: -0.003 | inactive: 0.01 |  | inactive: 0.022 |  | inactive: -0.058 | inactive: 0 | inactive: -0.069 | inactive: -0.019 |  | inactive: 0.054 | inactive: -0.116 | inactive: 0 | inactive: -0.067 | inactive: 0.056
3 | LSM3 (UniProt P62310) | inactive: 0 | inactive: 0.04 | inactive: 0.03 | inactive: 0.045 | inactive: 0.011 | inactive: -0.039 | inactive: -0.014 | inactive: 0.028 | inactive: -0.011 | inactive: -0.007 | inactive: 0.03 | inactive: -0.012 | inactive: 0.012 | inactive: 0.007 | inactive: 0.05 | inactive: 0 | inactive: 0.006 | inactive: 0.04 | inactive: 0.018 | inactive: 0.053
4 | LINGO1 (UniProt Q96FE5) | inactive: -0.025 | inactive: 0.041 | inactive: -0.05 | inactive: -0.094 | inactive: 0.05 | inactive: -0.084 | inactive: 0.078 |  | inactive: 0.029 |  | inactive: -0.111 | inactive: 0.017 |  | inactive: -0.135 | inactive: -0.012 | inactive: 0.064 | inactive: -0.011 |  | inactive: -0.002 | inactive: 0.032
5 | LRIF1 (UniProt Q5T3J3) | inactive: -0.018 | inactive: 0.075 | inactive: -0.035 | inactive: 0.002 | inactive: 0.126 | inactive: 0.049 | inactive: 0.052 | inactive: -0.03 | inactive: 0.234 | inactive: -0.039 | inactive: -0.094 |  | inactive: 0.019 | inactive: -0.008 | inactive: -0.133 | inactive: 0.006 | inactive: 0.039 | inactive: 0.026 |  | inactive: -0.038
6 | LCORL (UniProt Q8N3X6) | inactive: 0.026 | inactive: -0.039 | inactive: -0.036 | inactive: -0.23 |  |  |  |  |  |  |  |  |  | inactive: -0.04 |  | inactive: -0.061 |  |  |  | inactive: 0.206
7 | LPCAT3 (UniProt Q6P1A2) | inactive: 0.003 | inactive: 0.008 | inactive: 0.007 | inactive: 0.051 | inactive: -0.163 | inactive: 0.023 | inactive: 0.131 | inactive: 0.021 | inactive: 0.023 | inactive: -0.062 | inactive: 0.004 | inactive: -0.048 | inactive: -0.146 | inactive: -0.041 | inactive: 0.071 | inactive: 0.002 | inactive: -0.035 | inactive: 0.091 | inactive: 0.18 | inactive: 0.035
8 | LEMD2 (UniProt Q8NC56) | inactive: -0.004 | inactive: -0.03 | inactive: 0.072 |  | inactive: -0.003 | inactive: -0.001 | inactive: 0.087 |  | inactive: 0.016 |  | inactive: 0.037 |  | inactive: -0.049 | inactive: -0.005 | inactive: -0.061 | inactive: -0.021 | inactive: -0.048 | inactive: 0.036 |  | inactive: 0.008
9 | LEMD3 (UniProt Q9Y2U8) | inactive: -0.009 | inactive: -0.166 | inactive: -0.052 |  |  |  |  | inactive: 0.071 | inactive: -0.066 | inactive: -0.051 | inactive: 0.078 | inactive: 0.158 | inactive: -0.053 | inactive: -0.089 |  | inactive: -0.029 |  | inactive: -0.072 | inactive: -0.001 | inactive: -0.054
10 | LSG1 (UniProt Q9H089) | inactive: -0.079 | inactive: -0.016 | inactive: -0.046 | inactive: 0.003 | inactive: -0.077 | inactive: 0.046 | active: 0.303 | inactive: -0.017 | inactive: -0.028 | inactive: -0.059 | inactive: -0.002 | inactive: -0.044 | inactive: -0.191 | inactive: -0.099 | inactive: -0.075 | inactive: 0.037 | inactive: -0.03 | inactive: 0.085 | inactive: -0.077 | inactive: 0.072
11 | LSM7 (UniProt Q9UK45) | inactive: -0.024 | inactive: 0.04 | inactive: -0.026 | inactive: -0.022 | inactive: 0.051 | inactive: -0.025 | inactive: 0.003 | inactive: 0 | inactive: -0.003 | inactive: -0.051 | inactive: 0.02 | inactive: 0.029 | inactive: 0.033 | inactive: -0.072 | inactive: 0.033 | inactive: 0.026 | inactive: 0.051 | inactive: -0.014 | inactive: -0.067 | inactive: 0.063
12 | LARS2 (UniProt Q15031) | inactive: 0.021 | inactive: -0.06 | inactive: -0.047 | inactive: 0.013 | inactive: -0.088 | inactive: 0.038 | inactive: -0.115 | inactive: 0.051 | inactive: 0.007 | inactive: 0.012 | inactive: -0.012 | inactive: -0.073 | inactive: -0.047 | inactive: 0.014 | inactive: -0.039 | inactive: -0.2 | inactive: 0.054 | inactive: 0.012 | inactive: -0.067 | inactive: 0.044
13 | LMAN2 (UniProt Q12907) | inactive: -0.02 | inactive: 0.061 | inactive: 0 | inactive: 0.015 | inactive: 0.008 | inactive: 0.028 | inactive: -0.035 | inactive: 0.002 | inactive: -0.003 | inactive: 0.008 | inactive: -0.031 | inactive: -0.003 | inactive: -0.005 | inactive: -0.124 | inactive: -0.01 | inactive: 0.038 | inactive: -0.024 | inactive: 0 | inactive: -0.016 | inactive: 0.094
14 | LBH (UniProt Q53QV2) | inactive: 0.087 | inactive: 0.143 | inactive: 0.147 |  | inactive: -0.057 | inactive: -0.11 | inactive: 0.063 |  |  |  |  |  |  | inactive: -0.019 | inactive: 0.037 | inactive: -0.095 | inactive: -0.126 |  |  | inactive: -0.114
15 | LONRF2 (UniProt Q1L5Z9) | inactive: -0.015 |  | inactive: 0.079 |  | inactive: 0.018 | inactive: 0.042 | inactive: -0.11 | inactive: -0.046 |  | inactive: 0.068 |  |  | inactive: -0.001 | inactive: 0.03 | inactive: -0.002 | inactive: -0.104 | inactive: -0.097 | inactive: 0.013 |  | inactive: -0.013
16 | LDHA (UniProt F5GZQ4) | inactive: 0.09 | inactive: 0.147 |  |  |  |  |  | inactive: -0.179 | inactive: 0.059 | inactive: -0.278 | inactive: -0.261 | inactive: -0.43 |  | inactive: -0.08 |  | inactive: 0.034 |  |  | inactive: -0.182 | inactive: -0.002
17 | LSM5 (UniProt Q9Y4Y9) | inactive: 0.2 | inactive: -0.059 | inactive: -0.027 | inactive: 0.002 | inactive: -0.251 | inactive: -0.068 | inactive: -0.087 |  | inactive: 0.068 |  | inactive: -0.193 | inactive: 0.005 | inactive: -0.086 | inactive: 0.219 | inactive: 0.028 | inactive: -0.06 | inactive: 0.124 | inactive: 0.067 | inactive: 0.071 | inactive: -0.102
18 | LRRC14 (UniProt Q15048) | inactive: -0.065 | inactive: -0.152 | inactive: -0.009 | inactive: -0.038 | inactive: -0.007 | inactive: 0.224 | inactive: 0.044 | inactive: 0.015 | inactive: -0.056 | inactive: 0.007 | inactive: -0.047 | inactive: -0.037 | inactive: 0.027 | inactive: -0.134 | inactive: 0.086 | inactive: -0.086 | inactive: -0.045 | inactive: -0.022 | inactive: -0.075 | inactive: 0.062

Some of the entries so far, tab-delimited:
Row	Target	log2 fold change (alvocidib)	log2 fold change (Tubastatin A)	log2 fold change [1]	log2 fold change (defactinib)	log2 fold change [2]	log2 fold change (encorafenib)	log2 fold change [3]	log2 fold change (alisertib)	log2 fold change [4]	log2 fold change (gefitinib)	log2 fold change (lapatinib)	log2 fold change (pictilisib)	log2 fold change (crizotinib)	log2 fold change [5]	log2 fold change (duvelisib)	log2 fold change (gandotinib)	log2 fold change (tozasertib)	log2 fold change (doramapimod)	log2 fold change (bafetinib)	log2 fold change [6]
1	LMBRD2 (UniProt Q68DH5)	inactive: 0.059	inactive: 0.054	inactive: -0.002	inactive: 0.01	inactive: -0.011	inactive: 0.051	inactive: 0.027	inactive: 0.123	inactive: 0.003	inactive: 0.153	inactive: -0.037	inactive: -0.012	inactive: -0.056	inactive: 0.035	inactive: 0.018	inactive: 0.025	inactive: 0.016	inactive: 0.019	inactive: 0.002	inactive: -0.009
2	LEPROT (UniProt O15243)	inactive: 0.006	inactive: 0.01	inactive: 0			inactive: -0.003	inactive: 0.01		inactive: 0.022		inactive: -0.058	inactive: 0	inactive: -0.069	inactive: -0.019		inactive: 0.054	inactive: -0.116	inactive: 0	inactive: -0.067	inactive: 0.056
